Our source for the binding values is PMC6996572.

The chains behind the UniProt entries cited, without tags or fusion partners. Residues count along the entry.
UniProt Q9UDW1: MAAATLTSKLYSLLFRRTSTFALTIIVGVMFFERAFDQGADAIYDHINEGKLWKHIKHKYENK
UniProt O14949: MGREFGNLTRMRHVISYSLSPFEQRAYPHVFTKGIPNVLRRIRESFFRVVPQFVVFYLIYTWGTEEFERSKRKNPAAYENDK
UniProt P07919, residues 14-91: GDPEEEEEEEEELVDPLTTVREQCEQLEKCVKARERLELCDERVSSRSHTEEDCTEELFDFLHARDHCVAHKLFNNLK
UniProt P09669: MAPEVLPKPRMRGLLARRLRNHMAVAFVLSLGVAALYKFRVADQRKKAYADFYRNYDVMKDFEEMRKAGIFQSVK
UniProt P10606, residues 32-129: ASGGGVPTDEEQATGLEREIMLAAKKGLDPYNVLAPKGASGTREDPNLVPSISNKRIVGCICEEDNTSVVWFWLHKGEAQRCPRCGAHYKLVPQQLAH
UniProt P14927: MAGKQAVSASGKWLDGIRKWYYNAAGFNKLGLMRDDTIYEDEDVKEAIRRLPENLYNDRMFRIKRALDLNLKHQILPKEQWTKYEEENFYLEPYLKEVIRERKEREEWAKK

For this test, the target named is HA-tagged UQCR10 (UQCR10^HA) (human) (UniProt Q9UDW1). Description: affinity purification with mass spectrometry; anti-HA antibody conjugated to Sepharose beads; HA-tagged cIII2 subunit (UQCR10^HA or CYC1^HA) expressed in WT and Δ4-CYB cybrids, SILAC heavy/light reciprocal labelling in duplicate, Δ4-CYB against WT ratios.

These are yes or no findings as the source states them, for the method shown. In cells and extracts the contact can be indirect. A yes stands for co-enrichment or nearness to the bait. Other partners may have been found.

Take UQCRQ (from UniProt O14949 1-82): the binding result was “binds”.

Turning to UQCRH (from UniProt P07919 14-91), the binding result is “binds”.

Take COX6C (from UniProt P09669 1-75): the binding entry is “binds”.

For the molecule COX5B (from UniProt P10606 32-129), the binding result is on record as “binds”.

Consider UQCRB (from UniProt P14927 1-111), for which the binding entry is “binds”.

B1: GHITM (growth hormone-inducible transmembrane protein) (protein, UniProt Q9H3K2 46-345)
chain: ATKTRIGIRRGRTGQELKEAALEPSMEKIFKIDQMGRWFVAGGAAVGLGALCYYGLGLSNEIGAIEKAVIWPQYVKDRIHSTYMYLAGSIGLTALSAIAISRTPVLMNFMMRGSWVTIGVTFAAMVGAGMLVRSIPYDQSPGPKHLAWLLHSGVMGAVVAPLTILGGPLLIRAAWYTAGIVGGLSTVAMCAPSEKFLNMGAPLGVGLGLVFVSSLGSMFLPPTTVAGATLYSVAMYGGLVLFSMFLLYDTQKVIKRAEVSPMYGVQKYDPINSMLSIYMDTLNIFMRVATMLATGGNRKK
On to B1, for which the binding result is reported as “binds”.

B2: COX7A2L (protein, UniProt O14548 56-114)
chain: GKNKVPELQKFFQKADGVPVYLKRGLPDQMLYRTTMALTVGGTIYCLIALYMASQPKNK
As to B2, the binding entry was “binds”.
